Test results taken from paper PMC5770620.
No constants are given. Whether binding was seen depends on the method and setting. In cells and extracts the contact can be indirect. A result given as binding can be weak or reduced; the word gives no strength. Tags and fused reporters may be left off the sequences shown.

Amino acid sequences for entries named in this document (tags omitted). A change or cut given only in a name is not applied to a line headed by its entry.
UniProt A6T5D4: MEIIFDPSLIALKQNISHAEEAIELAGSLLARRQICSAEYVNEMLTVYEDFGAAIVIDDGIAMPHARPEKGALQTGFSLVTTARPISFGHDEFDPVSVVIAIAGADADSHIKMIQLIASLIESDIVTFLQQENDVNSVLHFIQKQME

Target: T1, GST-tagged GlpK of K. pneumoniae MGH 78578 (KPN04011) (Klebsiella pneumoniae MGH 78578) (UniProt A6TFR2)
T1 sequence: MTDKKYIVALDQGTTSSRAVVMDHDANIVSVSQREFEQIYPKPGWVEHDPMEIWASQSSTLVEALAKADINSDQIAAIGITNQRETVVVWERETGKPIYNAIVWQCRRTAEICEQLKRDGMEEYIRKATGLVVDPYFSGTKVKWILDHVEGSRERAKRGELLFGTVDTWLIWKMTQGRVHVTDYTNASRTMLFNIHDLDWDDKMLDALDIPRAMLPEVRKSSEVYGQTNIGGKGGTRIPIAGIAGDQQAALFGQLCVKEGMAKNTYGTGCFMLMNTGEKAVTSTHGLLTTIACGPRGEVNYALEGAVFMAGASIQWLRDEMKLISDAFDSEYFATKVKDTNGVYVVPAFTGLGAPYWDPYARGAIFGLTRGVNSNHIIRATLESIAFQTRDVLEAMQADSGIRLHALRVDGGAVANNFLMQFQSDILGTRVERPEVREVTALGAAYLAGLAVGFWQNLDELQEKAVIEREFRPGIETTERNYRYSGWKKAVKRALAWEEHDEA
Experiment: pull-down; supernatant of E. coli lysate with GST-KpGlpK (or GST) mixed with supernatant with His-tagged protein in STE buffer (10 mM Tris-HCl pH 8.0, 150 mM NaCl, 1 mM EDTA, 1% Triton X-100, 1 mM DTT), 4°C 1 h; captured on glutathione-Sepharose beads, washed with PBS pH 7.4; Western blot with anti-His or anti-GST

- binding: binds
Substance: His-tagged KPN00353 (wild type) (from UniProt A6T5D4)
